Three molecules from article PMC8698288 can be followed below.

Results are given in words; binding and its absence hold for the method and conditions named. In cells and extracts the contact can be indirect. Here binding means that the protein was enriched with, or labelled near, the bait; the list need not be complete.

First the molecules themselves.
B1: Cell-cycle-associated protein kinase DYRK, putative (protein, UniProt S8F8Y6 1-1180)
chain: MASLPASDGREEEALAALRRVLHAWTGPEGEAGREARLLKNAAFLESLQQLVSQLACLHGAADRVGADGAFFADREERRETEGGSGVSFSDARVALNDLLSSNLPLSVVESHALVQDLLRRQQAGTGAVSAPKREAACFPLGRSEGEQGGVFGLGSASLEAPAAPPLLLPLPGSLLVSSPSARYCPKRPRHSQPVTSPSVDAAFLRSILAGDQQALSLHSESRSAQRGGAGATLNGGEPDGDEALKRDQCERWKAHVGGLFIPFFDADDEYRDDYDPGYRILDLAEAHYIHDCHTFRQNPVDLVGGLSACSRRPRLSAHLERIYSRRSAATVRGSRSVTEDRGDKSEERGPKAESELGPRGQDSPRFGAWGSGARRETAAFAGGPGTGGTGGGRSSPSFGFHGGDESRAGGPPDEAHMFEFSLDDEGDRDATAEMENKESSRESRAVSLEDELADCTVQVSSRFSGSKAPLPPVPGAARLDSKNDGASSSAKPGGESAPAEPFSPVQGDDPGASGRVEVSVGAPGDFSTLSAAEEDQLAAYEREMKLCEAWRERYCNGDPGAFRARQQAMRSACILSFEGSKDSEAQPQGGRLGPVLRPLYPKSDDAFYPVRIQPSSQRSSLREPRGTARGSEETEERLEETDDSGAESGPGGKAAAARTRPAGTGRGEDASEARPTHGEAKRGQEHSSLPRQPQQGRGTTAPAVIYDCFHLKVVFERGRTGFEDHRELVLPPGTLLAGRYEVEKEVGRAAFSRCLRCIDTVTNKQVCLKVIRNEKEYMDQSLDEVKTLRFLSANGDPDALHFLRLCDFFYHREHLVLVTELLSQNLYEFSSFFRKNHLPSFWTVGKIQRIARELLVALRFVHSLNVVHCDLKPENILLRPQAITDTRFYKCLSQQQPSAIVAEVFANCGRRNSADGRVAADAADRDASARKRNGVSASSGSDVSPFSLQLPCTQFGTSLSPQKDAPCAASLHAPVSVKLIDFGNSCLTSDPLITYVQSRSYRAPEVLLELPYDTKIDIWSLGCVLFELWTSVVLFMNDSVHSLLARIVGIIGQIPWYMVEKSPKKEELFDSDGFLYVVLPSENSEWKGDSKGKGTRSHEEEKEGRRDEGEREGKRESQGRMLRFLLPKRTSLRQRMRATDEVFIDFLEKMLIIDPAQRWDANRLLTHPFLDQHRYPDGL
B2: DDHD domain-containing protein TGME49_313600 (protein, UniProt S8G2U2 1-1483)
chain: MAFSWFFPQQASEGAPLTAVSSTATDEKPAGVLNKAVSVEASTKDFADARTAVFARGPRLLSRHHSASSRRRSKHVGPVQIEFDDDDEPHASFSYTRPPSQPIEHRSSSDSASGGSHAGQRGVDPRCARERERKNRERAASLERSSARSMCSGGEHVKTARFHVSARRERAAQRFNTVDDPENVDGDSHPQSPQRGVALKQETSVDQPHVGGKEPEDDADLVVGAKPFEFAFAGRRRRTLSHFPSRLGTLPSLRSFPLGSQSGEGRTLTASREGHRGFREGNPRVHPPESRRMDEGDSSDYSGVSPAELTPREGETSRSVQVSGDVFAETSARFHLPSEIKPSKRSISSLRQPLGNGLRGETESTASPDSSAPQNTHVTASQSRPPQILQGPLPASTGPPEKSSTASVGRHPLRTASARVSFAATAAERAAETRGHKAKDEEQRLSPSAGPSPRKSLAEGEARKMQTRERHRPRSPSSSASTRVSELDTARSSSSSTSLPPVAQEEGRHRSDDAKGTEETAEVETGPQKVRASSVSGRPPCEHILLVVHGIGCEAEGGAIHKQQFVKSLALVNEYWFWKKPVEVHVHAINWKQTVIHAQEHMFEHITLKDVYETRRMLTLTAADLLFFLTPRYGDFIMTQVAEQLNEAVAKLRAHPSERYKNSKISVLGYSLGSVMAYELLAGRPFRPSLFNPTTNPSPRLNFHVDSLFLLGSALPAFLLLHAPEILKQGMWLPKDLRLYNIFHPCDPVAFRLEKLVYPQIRQLPPPVLLAFWRTNGVQKWYEWDMNVQHAKNVLMQNITDFASTISNSLFFWWNPEKGNPNPEGISVLDSNASAASAALEEAKKTRTGLLSSSFSSSSLVGPLVQKSKAGQRDADGLRDGDTRNGGKRGGSAETPGRGAGGDGASRTHRRVLDSARSSSAKLGDENTKQLPLRPADMCAFRMRLKQTLPHVLRRHRAAESSEDEDVSLPAGSRLLPRLPPLPSLGSSLSSSLASADLSSSASSQLDVSPRSSSAASSTASAEETPHSPSSPNASEREQNDSRVESRSKDADTCMHPSPRAAVQLYAGAARETASGDLEKAKSGDASSPGERENQRAALTKRGSELSATGGALPERDAETGKDRSGNRRVSKKEGDADSKPKREEDKGGRTRPRGEEEEGDGDQNIWHLLYRSNSKEKPEDGAVSDVTTSSAGSGAFALEQLEQLEQETSRAMAQLETINEQTGPDILPVRVDFQLQEDTAEHFLSSLAMLQSHFNYWKLKDVAFFILKCLTGTNPTLSYTGHLKQLECAARKAAAKAERESNEVERRRQLKLAAALHRRLDSFNGTSEGTETSRKSRQPHAKHGSSPQGGTLGKRHSLAGSENYGREKSKHRQSVPGGGAIEVSSDGESHCSADRKGSSSAESERDISTESGSSKAQSTYRSRHSEAKANGGNYSTDSSSAESMPRAGQESEKSARKRHLEKRQQRANERLSTHRTVTKSFK
B3: Endonuclease/exonuclease/phosphatase family protein TGME49_243590 (protein, UniProt S8FA35 1-1111)
chain: MQAHTATFDEFTCSHRHYVNRIRRDILGRGVLKVTLHEALHVDEILSLPRPMFLTSFSSPFFSGVLLCSLHLPLLGASLPLCPVCAPPRSSSQLLSFCSSRLLRASSSPGCVGGRPGRRSAPVAKTKPVFEFPPLTSASVPSLPFSSPSASSGKPIPRTVSSRSSPFCPAPLCRFFSSLPFAHPSSACVAPSVRSGSSLRPATFLLWSFCFSSRLAVRSRKCTVHCQLPLSLVPTVSLPGLSLVQSSRRPLCPFSVSPSAASFCLREYSSLSQRLFTSDSPKTFFHQLPRSSSNGSLIYSSLPSSASALLSSSPSPSSSPSSASSPSSSAVSGVRGGTQATLASCPSSFRKSENMERRSKLGDLLVTRAADGKLLLTFFWLGQRVNLERSEEEPLDRLLQRLRLSCRKVTQKRLAEETRKGKAARKQRKKAEESSPGAHAATEPVHNEEKKAAAIEDLPFIFLRRKDGTVAPGDEACGVSFQRASLICFSPFAPQGDAERTGKSELSPRDESADSENVLEVVWDPPVARCIYVPQAVYTGCPVLACVVTEHANEDDLVIEWRYEDSGVDGPVIHRGRHYTPKPADEGRVLILKAYHPLYSVFSVTNSLPPVLPCPSIDWHFERNNAFSPSSPSSLPSLSPAASSSVPSHPSVRAKSSKSLRVCSFNILAGAYARTPHAVQAMYPYCSGHHLDLHHRKALLGKELHALDGDIVALQECSSSLFFSFLAPLFKEEYHAFLQCKFKARVQEGCALLIRKKYFSVLREGSVIFQKELLTNPQYDELLAELRRKWPHFETDVLPHLTTVMQFAILRRRDTREAHDEKDLPKTLVVANTHLFFHPYARHIRVLQIYVMTNFLQTLREEFAESEDSSTAPAEPASFSASRRLPPVIMCGDFNCQPGSGGLKLLKKKAVHAYLDDWHDGLAFRWEKDEDAAAEDEEEKNGDEEAKSGIEMKKEDAPGTIVSPSLPETSPASSDSAVAFAAASESRNAEHEGKGPHEMESGIDHREAGGEQGTGEEPGVALRLPGDLDLVDCYEDSPLAFSNFVSGFQATLDYIYASSDFKVVARLPGVSEEAVRAHGGLPCHGYPSDHLAIAVDLQLKSTESPENSYTK

The assay addresses FLAG-BirA*-MOB1 (Toxoplasma gondii MOB1 fused to the C-terminal end of FLAG-BirA*) (Toxoplasma gondii). Description: proximity labelling; BioID: FLAG-BirA*-MOB1 (control: FLAG-BirA*) tachyzoites in HFF cells, 150 µM biotin for 56 h; lysate in sucrose-based lysis buffer on agarose-streptavidin beads overnight at 18 °C; nanoLC-MS/MS; three biological replicates.
For the molecule B1, the binding result is given as “binds”.

As to B2, the binding entry is recorded as “binds”.

Consider B3, for which the binding result is listed as “binds”.
